From US11518794 (dated 2022)
Values joined by “and” are separate entries in the source; they are usually repeats but may differ in a detail not shown here. Identical values can stand only once.

Test: general procedure: Fmoc solid-phase peptide synthesis; Fmoc-Gly-Wang resin (0.279 mmol/g); 2-CTC resin; DIC/HOBt; PyBOP/HOBt/DIPEA
Conditions: whole synthesis; for isolated yield: total yield
[1] = HPLC, scale of the general procedure 4.25 g of Fmoc-Gly-Wang resin (0.279 mmol/g), run 1
[2] = HPLC, scale of the general procedure 4.25 g of Fmoc-Gly-Wang resin (0.279 mmol/g), run 2
[3] = HPLC, scale of the general procedure 4.25 g of Fmoc-Gly-Wang resin (0.279 mmol/g), run 3
[4] = HPLC, scale of the general procedure 4.25 g of Fmoc-Gly-Wang resin (0.279 mmol/g), run 4
[5] = HPLC, scale of the general procedure 4.25 g of Fmoc-Gly-Wang resin (0.279 mmol/g), run 5
[6] = HPLC, scale of the general procedure 4.25 g of Fmoc-Gly-Wang resin (0.279 mmol/g), run 6
[7] = HPLC, scale of the general procedure 4.25 g of Fmoc-Gly-Wang resin (0.279 mmol/g), run 7
[8] = HPLC, scale of the general procedure 4.25 g of Fmoc-Gly-Wang resin (0.279 mmol/g), run 8
[9] = HPLC, scale of the general procedure 4.25 g of Fmoc-Gly-Wang resin (0.279 mmol/g), run 9
[10] = HPLC, scale of the general procedure 4.25 g of Fmoc-Gly-Wang resin (0.279 mmol/g), run 10
[11] = scale of the general procedure 4.25 g of Fmoc-Gly-Wang resin (0.279 mmol/g), run 1
[12] = scale of the general procedure 4.25 g of Fmoc-Gly-Wang resin (0.279 mmol/g), run 2
[13] = scale of the general procedure 4.25 g of Fmoc-Gly-Wang resin (0.279 mmol/g), run 3
[14] = scale of the general procedure 4.25 g of Fmoc-Gly-Wang resin (0.279 mmol/g), run 4
[15] = scale of the general procedure 4.25 g of Fmoc-Gly-Wang resin (0.279 mmol/g), run 5
[16] = scale of the general procedure 4.25 g of Fmoc-Gly-Wang resin (0.279 mmol/g), run 6
[17] = scale of the general procedure 4.25 g of Fmoc-Gly-Wang resin (0.279 mmol/g), run 7
[18] = scale of the general procedure 4.25 g of Fmoc-Gly-Wang resin (0.279 mmol/g), run 8
[19] = scale of the general procedure 4.25 g of Fmoc-Gly-Wang resin (0.279 mmol/g), run 9
[20] = scale of the general procedure 4.25 g of Fmoc-Gly-Wang resin (0.279 mmol/g), run 10

In the case of liraglutide, the “crude HPLC purity” value [1] was 70.61%, the “crude purity (method not given)” value [1] was 70.61% and 71.68% and 72.02% and 72.72% and 70.72% and 71.53% and 72.03% and 70.36% and the “final HPLC purity” value [1] was 99.27%. The “crude HPLC purity” value [2] was 68.61%, the “final HPLC purity” value [2] was 97.53% and the “crude HPLC purity” value [3] was 71.68%. The “final HPLC purity” value [3] was 99.31%, the “crude HPLC purity” value [4] was 72.02% and the “final HPLC purity” value [4] was 99.23%. The “crude HPLC purity” value [5] was 72.72%, the “final HPLC purity” value [5] was 99.36% and the “crude HPLC purity” value [6] was 70.72%. For the same substance, the “final HPLC purity” value [6] was 99.48%, the “crude HPLC purity” value [7] was 71.53% and the “final HPLC purity” value [7] was 99.50%. For the same substance, the “crude HPLC purity” value [8] was 72.03%, the “final HPLC purity” value [8] was 99.51% and the “crude HPLC purity” value [9] was 70.36%. The “final HPLC purity” value [9] was 99.48%, the “crude HPLC purity” value [10] was 68.63% and the “final HPLC purity” value [10] was 98.36%. For the same substance, the crude yield [11] was 91.2%, the crude yield [12] was 79.8% and the crude yield [13] was 90.2%. The crude yield [14] was 90.5%, the crude yield [15] was 91.5% and the crude yield [16] was 91.8%. It also gave a crude yield [17] of 91.5%, a crude yield [18] of 90.6% and a crude yield [19] of 90.8%. It also gave a crude yield [20] of 80.5%, an isolated yield [11] of 25.12% and an isolated yield [12] of 12.58%. The isolated yield [13] was 23.14%, the isolated yield [14] was 24.14% and the isolated yield [15] was 24.36%. It also gave an isolated yield [16] of 25.14%, an isolated yield [17] of 24.65% and an isolated yield [18] of 23.46%. For the same substance, the isolated yield [19] was 24.12%, the isolated yield [20] was 11.34% and the isolated mass (run 1) was 0.48 g. For the same substance, the isolated mass (run 2) was 0.47 g.
